Experimental data taken from the supplement of paper PMC5249140, “Delineating Substrate Diversity of Disparate Short-Chain Dehydrogenase Reductase from Debaryomyces hansenii” (PLoS ONE, 2017).
Most values come without repeats; read them as rough.

What follows are compounds tested on DHK short-chain dehydrogenase reductase (Debaryomyces hansenii, Q6BTD7) (assay: apparent turnover number kcat for ketone reduction (NADPH consumption, 100 uM substrate) (s-1); higher = faster reduction of the ketone by the enzyme). Conditions: substrate concentration 100 µM; NADPH 100 µM; pH 7.4; 25 °C.
Method: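 Purified N-His6 DHK (unannotated SDR, Debaryomyces hansenii) was screened against a prochiral ketone library: 100 uM substrate, 100 uM NADPH, 1% BSA, 4% DMSO in 100 mM sodium phosphate / 100 mM NaCl pH 7.4 at 25 C, ~27 nM enzyme. Rate was followed by NADPH depletion at 340 nm and reported as apparent kcat (s-1) at a single substrate concentration; no replicates stated.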

Compound | apparent turnover number kcat
O=C1CN(C(=O)CCC(=O)c2ccc(Br)cc2)CCN1 | 3.62
O=C(CSc1nnnn1C1CCCC1)c1ccc2c(c1)OCO2 | 0.674
O=C(CSc1nnc(-c2ccccc2Cl)[nH]1)c1ccc(O)c(O)c1 | 0.437
O=C1c2cc(S(=O)(=O)N3CCOCC3)ccc2-c2ccc(S(=O)(=O)N3CCOCC3)cc21 | 0.00408
Cc1ccc(C(=O)C2=C(O)C(=O)N(CC(=O)[O-])C2c2cccc([N+](=O)[O-])c2)cc1 (stereo not given) | 6.12
O=C(COC(=O)c1ccc(Cl)s1)c1cc2ccccc2o1 | 4.88
O=C(COc1ccc2ccc(=O)oc2c1)c1cccc([N+](=O)[O-])c1 | 3.49
O=C(COC(=O)c1cccnc1)c1ccc(-c2ccccc2)cc1 | 4.34
CC(=O)c1cccc(Nc2nnc(C)c(=O)[nH]2)c1 | 4.57
CC(=O)c1cccc(S(=O)(=O)Nc2sc3c(c2C(N)=O)CCC3)c1 | 5.62
N#Cc1ccc(C(=O)OCC(=O)c2cc3ccccc3o2)cc1 | 4.51
COc1ccc(C2C(C(=O)c3ccc(Cl)cc3)=C(O)C(=O)N2C)cc1 (stereo not given) | 4.58
Cn1c(=O)[nH]c(=O)c2c1nc(Br)n2CC(=O)c1ccccc1 | 3.08
N#Cc1cc(C(=O)c2ccccc2O)cn(-c2ccccn2)c1=O | 6
O=C1C(=Cc2ccccc2OC(F)F)C(=O)c2ccccc21 | 2.91
O=C(CSc1nnc(-c2ccco2)o1)c1ccc2c(c1)OCCO2 | 5.43
COc1cccc(NC(=O)CC(=O)c2ccccc2)c1 | 4.39
O=C1COc2ccc(C(=O)COC(=O)c3ccccc3Cl)cc2N1 | 4.47
CC(=O)c1cccc(Nc2nc(-c3cc4ccccc4oc3=O)cs2)c1 | 4.14
Cc1ccc(-c2cc3ncc(C(=O)c4cc(C)ccc4O)cn3n2)cc1 | 4.88
CC(=O)c1ccc(S(=O)(=O)Nc2ccccc2C(N)=O)cc1 | 4.74
Cc1ccc(C)c(C(=O)CSc2nnnn2-c2ccccc2)c1 | 5.29
Cc1ccc(C(=O)COC(=O)CCN2C(=O)c3ccccc3C2=O)c(C)c1 | 4.45
O=C(CCc1ccccc1)OCC(=O)c1ccc([N+](=O)[O-])cc1 | 4.07
Cn1c(N)c(C(=O)COC(=O)Cc2ccc(Cl)cc2)c(=O)n(C)c1=O | 2.59
N#Cc1nc2ccccc2n1CC(=O)c1ccc2c(c1)OCCO2 | 5.24
CC(=O)C1=C(O)C(=O)N(c2cccc(C)c2)C1c1cccc([N+](=O)[O-])c1 (stereo not given) | 5.66

Compound | apparent turnover number kcat
CSc1ncc(Cl)c(C(=O)C(C#N)c2nc3ccccc3c(=O)[nH]2)n1 (stereo not given) | 4.45
COc1ccc(C(=O)CSc2nc(=O)[nH]c3c2CCC3)cc1 | 6.52
COc1ccc(O)c(C(=O)c2cnc3ccc4ccccc4c3c2)c1 | 3.53
Cc1ccc(C(=O)C2=C(O)C(=O)N(C)C2c2cccc([N+](=O)[O-])c2)cc1 (stereo not given) | 7.04
O=C(CN1C(=O)c2ccc(Br)cc2C1=O)OCC(=O)c1ccc(Cl)cc1Cl | 3.11
CC(=O)N(C1=C(Cl)C(=O)c2ccccc2C1=O)c1ccc(F)c(F)c1 | 5.25
CN(C(=O)c1ccc2c(c1)S(=O)(=O)c1ccccc1C2=O)c1ccccc1 | 6.1
O=C(COC(=O)c1cc2ccccc2oc1=O)c1ccccc1Cl | 5.23
O=C(CN1C(=O)c2cccc([N+](=O)[O-])c2C1=O)OCC(=O)c1ccccc1Cl | 5.92
O=C(CCN1C(=O)c2ccccc2C1=O)OCC(=O)c1ccc[nH]1 | 5.32
COc1ccc(C(=O)Cn2cnc3ccccc3c2=O)cc1OC | 4.21
CCc1c(C#N)c(SCc2ccc3c(c2)OCCO3)nc2c1C(=O)CC(C)(C)C2 | 0.321
N#CC(C(=O)COC(=O)c1n[nH]c2ccccc12)=C1Nc2ccccc2N1 | 4.97
O=C([O-])CCC(=O)CCC(=O)c1ccccc1 | 4.94
COc1ccc(C(=O)CSc2nnc(-c3ccc(F)cc3)o2)cc1 | 7.22
CCn1c(=O)[nH]c(=O)c2c(N)c(C(=O)c3ccccc3OC)sc21 | 5.17
O=C([O-])c1ccccc1C(=O)c1cccc(S(=O)(=O)N2CCOCC2)c1 | 3.08
CC(=O)c1ccc(NS(=O)(=O)c2cc(C(=O)[O-])ccc2Cl)cc1 | 7.42
O=C(CCN1C(=O)c2cccc([N+](=O)[O-])c2C1=O)OCC(=O)c1ccc(Br)s1 | 5.44
CC1(C)CC(=O)c2c(oc3ccc(NS(=O)(=O)c4cc([N+](=O)[O-])ccc4Cl)cc23)C1 | 4.81
CC1(C)CC(=O)C=C(NNC(=O)c2cccnc2)C1 | 2.88
Cc1c(C(=O)OCC(=O)c2c(N)n(CC(C)C)c(=O)n(C)c2=O)oc2ccccc12 | 3.56
O=C(CN(C(=O)c1ccccc1)N1C(=O)CCC1=O)c1ccccc1 | 4.34
Cc1ccc(C(=O)C2=C(O)C(=O)N(C)C2c2ccccc2[N+](=O)[O-])cc1 (stereo not given) | 8.75
O=C(c1cnc2cc3c(cc2c1)OCO3)c1cc(F)ccc1O | 4.67
O=C1C=C(c2ccccc2)CC(c2cccs2)C1n1nnc([N+](=O)[O-])n1 (stereo not given) | 0.0349
Cc1ccc(C(=O)COc2ccc(-c3cnc4ccccc4n3)cc2)cc1C | 5.17

Grouped by structure: the entries above with two or more sulfur atoms
Compound | apparent turnover number kcat
O=C1c2cc(S(=O)(=O)N3CCOCC3)ccc2-c2ccc(S(=O)(=O)N3CCOCC3)cc21 | 0.00408
CC(=O)c1cccc(S(=O)(=O)Nc2sc3c(c2C(N)=O)CCC3)c1 | 5.62

Next records follow:

Compound | apparent turnover number kcat
Cc1[nH]c2ccccc2c1C(=O)CSc1nnc(-c2cccnc2)o1 | 4.56
COc1ccc(Cl)cc1NC(=O)CNc1ccccc1C(C)=O | 3.54
O=C(CN1C(=O)c2ccc(Br)cc2C1=O)OCC(=O)c1ccc(Cl)cc1 | 2.35
CC(=O)N(C1=C(Cl)C(=O)c2ccccc2C1=O)c1cccc(F)c1 | 3.5
CC(=O)c1cccc(N(CC(=O)Nc2ccccc2Cl)S(C)(=O)=O)c1 | 4.2
COc1ccc(C(=O)COC(=O)CN2C(=O)c3cccc([N+](=O)[O-])c3C2=O)cc1 | 3.33
CCc1ccc(C(=O)COC(=O)CN2C(=O)c3ccccc3C2=O)cc1 | 4.45
Cc1cc(C)nc(SCC(=O)c2ccc(O)c(O)c2)n1 | 8.14
CC(=O)c1cc(C#N)c(SCC(=O)c2cc(C)c(C)cc2C)nc1C | 6.06
Cc1ccc(C(=O)COc2ccc3c(-c4ccccc4)cc(=O)oc3c2)cc1 | 2.89
Cc1[nH]c2ccccc2c1C(=O)C(C)OC(=O)c1ccccc1O (stereo not given) | 6.89
COc1cc(C(=O)OCC(=O)c2ccccc2)c([N+](=O)[O-])cc1OC | 4.46
O=C(Cn1cnc2c(nnn2Cc2ccccc2)c1=O)c1ccccc1 | 5.19
N#Cc1cnc(SCC(=O)c2ccc3c(c2)NC(=O)CO3)nc1N | 5.07
CC(=O)c1sc2nc(CSc3cc(C)c4cc(C)cc(C)c4n3)[nH]c(=O)c2c1C | 4.97
O=C(CSc1nc2ccccc2o1)c1nnc(-c2ccccc2)o1 | 4.07
O=C(c1ccc(O)cc1O)c1ccc(O)cc1O | 1.36
O=C(CN1C(=O)c2ccccc2C1=O)OCC(=O)c1c[nH]c2ccccc12 | 6.02
Cc1cc(C(=O)COC(=O)C2COc3ccccc3O2)c(C)n1C (stereo not given) | 3.72
O=C(CC(=O)c1ccc([N+](=O)[O-])cc1)Nc1ccc2c(c1)OCO2 | 6.21
O=C(COC(=O)c1cc2ccccc2cc1O)c1ccc(F)c(F)c1 | 3.86
Cc1cc(C)c2c(O)nc(SCC(=O)c3ccc(O)c(O)c3)nc2n1 | 0.0624
CC(=O)c1cccc(N(CC(=O)N2CCCCCC2)S(C)(=O)=O)c1 | 4.09
CC(=O)c1cccc(N(CC(=O)Nc2cccnc2)S(C)(=O)=O)c1 | 4.54
COc1ccc(C(C)=O)cc1CSc1nc(O)cc(O)n1 | 4.23
CC(=O)N(C1=C(O)C(=O)c2ccccc2C1=O)c1ccccc1 | 6.06
